# Assay results taken from the supplement of paper PMC8728848.
# Some of the results follow.
# B1: LlpA (Burkholderia cenocepacia) (protein)
# chain: MGSSHHHHHHSSGLVPRGSHKILGSNETLSAGNVVYSDNGQYHLAMQTDGNLVVYGPTGAVWQSQTSGSGGNRAVMQGDGNLVIYRADNTAAWSSKTAHPGAFLAVQDDGNVVIYWPRPAWASNTSDPATQQSAESKYLASGSTMSAGQTVTVAQYMLVFQADGNLVLYKNGGNPIWSTGTQGKGATYAVMQSDGNFVIYAGSTALWSTKTNGANGAQLVLQSDGNLVIYAPTAAWSTKFGLVTAPTSTSTSNNGPGSGICVGVCPPHPLNGNPFSPVGVGTTGLGFPTPGYPGAAF
# How the values were obtained:
# Test in all cases: glycan array binding signal (z-score within array); higher = stronger binding
# Conditions in all cases: glycan notation: IUPAC condensed, linker removed
# [1] = target: Neu5Ac(a2-3)Gal(b1-4)GlcNAc(b1-3)Gal(b1-4)GlcNAc(b1-2)Man(a1-3)[Neu5Ac(a2-3)Gal(b1-4)GlcNAc(b1-3)Gal(b1-4)GlcNAc(b1-2)Man(a1-6)]Man(b1-4)GlcNAc(b1-4)GlcNAc
# Outline: (§1)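 Glycan array binding is given as a within-array Z-score, which can be read as non-binding when negative. The arrays, 3228 of them, came from the Consortium for Functional Glycomics database and were retained only where the protein sequence was available. Z-scores were averaged across arrays of the same protein sequence at different concentrations or buffers and across linkers.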
# [2] = target: Neu5Ac(a2-3)Gal(b1-4)GlcNAc(b1-3)Gal(b1-4)GlcNAc(b1-3)Gal(b1-4)GlcNAc
# Outline: as §1
# [3] = target: Neu5Ac(a2-3)Gal(b1-4)GlcNAc(b1-3)Gal(b1-4)GlcNAc(b1-3)Gal(b1-4)GlcNAc(b1-2)Man(a1-3)[Neu5Ac(a2-3)Gal(b1-4)GlcNAc(b1-3)Gal(b1-4)GlcNAc(b1-3)Gal(b1-4)GlcNAc(b1-2)Man(a1-6)]GalNAc
# Outline: as §1
# [4] = target: Neu5Ac(a2-3)Gal(b1-4)GlcNAc(b1-3)Gal(b1-4)GlcNAc(b1-3)GalNAc
# Outline: as §1
# [5] = target: Neu5Ac(a2-3)Gal(b1-4)GlcNAc(b1-3)Gal(b1-4)GlcNAc(b1-3)[Neu5Ac(a2-3)Gal(b1-4)GlcNAc(b1-3)Gal(b1-4)GlcNAc(b1-6)]GalNAc
# Outline: as §1
# [6] = target: Neu5Ac(a2-3)Gal(b1-4)GlcNAc(b1-3)Gal(b1-4)GlcNAc(b1-6)[Gal(b1-3)]GalNAc
# Outline: as §1
# [7] = target: Neu5Ac(a2-3)Gal(b1-4)GlcNAc(b1-3)Gal(b1-4)[Fuc(a1-3)]GlcNAc
# Outline: as §1
# [8] = target: Neu5Ac(a2-3)Gal(b1-4)GlcNAc(b1-3)GalNAc
# Outline: as §1
# [9] = target: Neu5Ac(a2-3)Gal(b1-4)GlcNAc(b1-3)[Neu5Ac(a2-3)Gal(b1-4)GlcNAc(b1-6)]GalNAc
# Outline: as §1
# [10] = target: Neu5Ac(a2-3)Gal(b1-4)GlcNAc(b1-6)GalNAc
# Outline: as §1
# [11] = target: Neu5Ac(a2-3)Gal(b1-4)GlcNAc(b1-6)[Gal(b1-3)]GalNAc
# Outline: as §1
# [12] = target: Neu5Ac(a2-3)Gal(b1-4)GlcNAc(b1-6)[Neu5Ac(a2-3)Gal(b1-3)]GalNAc
# Outline: as §1
# [13] = target: Neu5Ac(a2-3)Gal(b1-4)GlcNAc6S
# Outline: as §1
# [14] = target: Neu5Ac(a2-3)Gal(b1-4)[Fuc(a1-3)]GlcNAc
# Outline: as §1
# [15] = target: Neu5Ac(a2-3)Gal(b1-4)[Fuc(a1-3)]GlcNAc(b1-2)Man
# Outline: as §1
# [16] = target: Neu5Ac(a2-3)Gal(b1-4)[Fuc(a1-3)]GlcNAc(b1-3)Gal
# Outline: as §1
# [17] = target: Neu5Ac(a2-3)Gal(b1-4)[Fuc(a1-3)]GlcNAc(b1-3)Gal(b1-4)GlcNAc
# Outline: as §1
# [18] = target: Neu5Ac(a2-3)Gal(b1-4)[Fuc(a1-3)]GlcNAc(b1-3)Gal(b1-4)[Fuc(a1-3)]GlcNAc(b1-3)Gal(b1-4)[Fuc(a1-3)]GlcNAc
# Outline: as §1
# [19] = target: Neu5Ac(a2-3)Gal(b1-4)[Fuc(a1-3)]GlcNAc(b1-3)GalNAc
# Outline: as §1
# [20] = target: Neu5Ac(a2-3)Gal(b1-4)[Fuc(a1-3)]GlcNAc(b1-6)[Gal(b1-3)]GalNAc
# Outline: as §1
# [21] = target: Neu5Ac(a2-3)Gal(b1-4)[Fuc(a1-3)]GlcNAc(b1-6)[Neu5Ac(a2-3)Gal(b1-3)]GalNAc
# Outline: as §1
# [22] = target: Neu5Ac(a2-3)Gal(b1-4)[Fuc(a1-3)]GlcNAc6S
# Outline: as §1
# [23] = target: Neu5Ac(a2-3)Gal6S(b1-4)GlcNAc
# Outline: as §1
# [24] = target: Neu5Ac(a2-3)Gal6S(b1-4)[Fuc(a1-3)]GlcNAc
# Outline: as §1
# Neu5Ac(a2-3)GalNAc = target: Neu5Ac(a2-3)GalNAc
# Outline: as §1
# [25] = target: Neu5Ac(a2-3)GalNAc(b1-4)GlcNAc
# Outline: as §1
# [26] = target: Neu5Ac(a2-3)[GalNAc(b1-4)]Gal(b1-4)Glc
# Outline: as §1
# [27] = target: Neu5Ac(a2-3)[GalNAc(b1-4)]Gal(b1-4)GlcNAc
# Outline: as §1
# [28] = target: Neu5Ac(a2-3)[GalNAc(b1-4)]Gal(b1-4)GlcNAc(b1-3)GalNAc
# Outline: as §1
# [29] = target: Neu5Ac(a2-3)[Neu5Ac(a2-6)]GalNAc
# Outline: as §1
# Neu5Ac(a2-6)Gal = target: Neu5Ac(a2-6)Gal
# Outline: as §1
# [30] = target: Neu5Ac(a2-6)Gal(b1-3)GlcNAc(b1-3)[Gal(b1-4)GlcNAc(b1-6)]Gal(b1-4)Glc
# Outline: as §1
# Neu5Ac(a2-6)Gal(b1-4)Glc = target: Neu5Ac(a2-6)Gal(b1-4)Glc
# Outline: as §1
# [31] = target: Neu5Ac(a2-6)Gal(b1-4)GlcNAc
# Outline: as §1
# [32] = target: Neu5Ac(a2-6)Gal(b1-4)GlcNAc(b1-2)Man
# Outline: as §1
# [33] = target: Neu5Ac(a2-6)Gal(b1-4)GlcNAc(b1-2)Man(a1-3)Man(b1-4)GlcNAc(b1-4)GlcNAc
# Outline: as §1
# [34] = target: Neu5Ac(a2-6)Gal(b1-4)GlcNAc(b1-2)Man(a1-3)[Gal(b1-4)GlcNAc(b1-2)Man(a1-6)]Man(b1-4)GlcNAc(b1-4)GlcNAc
# Outline: as §1
# [35] = target: Neu5Ac(a2-6)Gal(b1-4)GlcNAc(b1-2)Man(a1-3)[GlcNAc(b1-2)Man(a1-6)]Man(b1-4)GlcNAc(b1-4)GlcNAc
# Outline: as §1
binder,measurement,setting,value
B1,glycan array binding signal (z-score),[1],1.15
same,glycan array binding signal (z-score),[2],-0.68
same,glycan array binding signal (z-score),[3],0.783
same,glycan array binding signal (z-score),[4],0.147
same,glycan array binding signal (z-score),[5],0.599
same,glycan array binding signal (z-score),[6],-0.156
same,glycan array binding signal (z-score),[7],-0.636
same,glycan array binding signal (z-score),[8],-0.268
same,glycan array binding signal (z-score),[9],-0.688
same,glycan array binding signal (z-score),[10],-1.07
same,glycan array binding signal (z-score),[11],-0.021
same,glycan array binding signal (z-score),[12],-0.363
same,glycan array binding signal (z-score),[13],0.798
same,glycan array binding signal (z-score),[14],-0.785
same,glycan array binding signal (z-score),[15],-0.407
same,glycan array binding signal (z-score),[16],-0.73
same,glycan array binding signal (z-score),[17],-0.548
same,glycan array binding signal (z-score),[18],-0.356
same,glycan array binding signal (z-score),[19],1.38
same,glycan array binding signal (z-score),[20],1.57
same,glycan array binding signal (z-score),[21],-0.297
same,glycan array binding signal (z-score),[22],0.357
same,glycan array binding signal (z-score),[23],-1.05
same,glycan array binding signal (z-score),[24],-1.66
same,glycan array binding signal (z-score),Neu5Ac(a2-3)GalNAc,0.659
same,glycan array binding signal (z-score),[25],-0.208
same,glycan array binding signal (z-score),[26],0.457
same,glycan array binding signal (z-score),[27],-0.447
same,glycan array binding signal (z-score),[28],0.959
same,glycan array binding signal (z-score),[29],-0.11
same,glycan array binding signal (z-score),Neu5Ac(a2-6)Gal,-0.305
same,glycan array binding signal (z-score),[30],-0.697
same,glycan array binding signal (z-score),Neu5Ac(a2-6)Gal(b1-4)Glc,-1.35
same,glycan array binding signal (z-score),[31],-0.538
same,glycan array binding signal (z-score),[32],-1.05
same,glycan array binding signal (z-score),[33],-0.786
same,glycan array binding signal (z-score),[34],0.352
same,glycan array binding signal (z-score),[35],0.706

# An excerpt from further up:
binder,measurement,setting,value
B1,glycan array binding signal (z-score),[21],-0.297
same,glycan array binding signal (z-score),[22],0.357
same,glycan array binding signal (z-score),[23],-1.05
